PubChem BioAssay AID1224830, NIAID – 2016
In all, the deposit lists about 18,000 reagents; below is an unselected part. Over the whole deposit, about 2,900 (16%) were called active. 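Calls are made per well; low scores hint the gene aids the LPS response, high scores that it dampens it.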 A number with no mark means an inactive call. Repeated entries: four replicate wells of each siRNA pool.

Screen: 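Genes whose knock-down alters the TNF-alpha reporter response to LPS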 (primary screen)
System: human THP-1 monocytic leukaemia cells, TNF dual-luciferase reporter clone, PMA-differentiated to macrophage-like cells
Reagent: siRNA pool against human genes, 50 nM
Time to read-out: LPS for 4 h, given about 3 days after siRNA transfection
Conditions: bacterial LPS (TLR4 ligand), 10 ng/ml
Read-out: 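TNF firefly reporter luminescence divided by renilla, normalised to the plate median, then turned into a robust z-score for each replicate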
Scale: TNF reporter robust z-score: higher = stronger TNF reporter response to LPS
Hit rule: 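Each well counts as active if its z-score is over 2.8 or under -1.5; controls are left without a call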

After knock-down of LPGAT1 (lysophosphatidylglycerol acyltransferase 1), the screen gave TNF reporter robust z-score -0.76.
After knock-down of LPGAT1 (lysophosphatidylglycerol acyltransferase 1) the results were TNF reporter robust z-score -0.42.
For LPGAT1 (lysophosphatidylglycerol acyltransferase 1), the entry reads TNF reporter robust z-score -1.08.
For LPGAT1 (lysophosphatidylglycerol acyltransferase 1), the values are TNF reporter robust z-score -0.74.
Silencing of PPP1R16A (protein phosphatase 1 regulatory subunit 16A) resulted in: TNF reporter robust z-score -0.11.
Against PPP1R16A (protein phosphatase 1 regulatory subunit 16A), the entry reads TNF reporter robust z-score -0.05.
Knock-down of PPP1R16A (protein phosphatase 1 regulatory subunit 16A) resulted in: TNF reporter robust z-score -0.99.
PPP1R16A (protein phosphatase 1 regulatory subunit 16A) showed TNF reporter robust z-score -0.92.
Silencing of SFR1 (SWI5 dependent homologous recombination repair protein 1) gave: TNF reporter robust z-score -1.4.
Silencing of SFR1 (SWI5 dependent homologous recombination repair protein 1) gave: TNF reporter robust z-score -0.9.
SFR1 (SWI5 dependent homologous recombination repair protein 1) scored TNF reporter robust z-score -0.21.
After knock-down of SFR1 (SWI5 dependent homologous recombination repair protein 1) the results were TNF reporter robust z-score -0.08.
Against UBE2G2 (ubiquitin conjugating enzyme E2 G2) the deposit lists TNF reporter robust z-score -0.73.
Against UBE2G2 (ubiquitin conjugating enzyme E2 G2) the deposit lists TNF reporter robust z-score -0.98.
Against UBE2G2 (ubiquitin conjugating enzyme E2 G2) the deposit lists TNF reporter robust z-score -0.53.
With knock-down of UBE2G2 (ubiquitin conjugating enzyme E2 G2), the screen gave TNF reporter robust z-score 1.12.
Depletion of PTGER3 (prostaglandin E receptor 3) resulted in: TNF reporter robust z-score 0.28.
Knock-down of PTGER3 (prostaglandin E receptor 3) gave: TNF reporter robust z-score 0.26.
For PTGER3 (prostaglandin E receptor 3), the entry reads TNF reporter robust z-score 0.58.
Silencing of PTGER3 (prostaglandin E receptor 3) resulted in: TNF reporter robust z-score 0.17.
ULBP3 (UL16 binding protein 3) showed TNF reporter robust z-score 0.39.
Against ULBP3 (UL16 binding protein 3), the values are TNF reporter robust z-score 0.76.
Depletion of ULBP3 (UL16 binding protein 3) came out at: TNF reporter robust z-score 1.4.
Against ULBP3 (UL16 binding protein 3), the entry reads TNF reporter robust z-score 0.68.
Depletion of SIDT1 (SID1 transmembrane family member 1) gave: TNF reporter robust z-score 0.08.
For SIDT1 (SID1 transmembrane family member 1), the entry reads TNF reporter robust z-score 0.32.
Silencing of SIDT1 (SID1 transmembrane family member 1) gave: TNF reporter robust z-score 0.86.
Depletion of SIDT1 (SID1 transmembrane family member 1) resulted in: TNF reporter robust z-score -0.29.
Knock-down of PNKD (PNKD metallo-beta-lactamase domain containing) resulted in: TNF reporter robust z-score 2.78.
Silencing of PNKD (PNKD metallo-beta-lactamase domain containing) came out at: TNF reporter robust z-score 3.89 (active).
Depletion of PNKD (PNKD metallo-beta-lactamase domain containing) gave: TNF reporter robust z-score 1.57.
Against PNKD (PNKD metallo-beta-lactamase domain containing), the values are TNF reporter robust z-score 4.21 (active).
With knock-down of CPLX2 (complexin 2), the screen gave TNF reporter robust z-score 0.6.
CPLX2 (complexin 2) scored TNF reporter robust z-score 1.17.
CPLX2 (complexin 2) gave TNF reporter robust z-score -0.23.
With knock-down of CPLX2 (complexin 2), the screen gave TNF reporter robust z-score 0.77.
Silencing of RAX (retina and anterior neural fold homeobox) gave: TNF reporter robust z-score 0.4.
RAX (retina and anterior neural fold homeobox) gave TNF reporter robust z-score 0.25.
For RAX (retina and anterior neural fold homeobox), the entry reads TNF reporter robust z-score 1.04.
With knock-down of RAX (retina and anterior neural fold homeobox) the results were TNF reporter robust z-score -0.58.
ACO1 (aconitase 1) scored TNF reporter robust z-score -0.34.
Silencing of ACO1 (aconitase 1) resulted in: TNF reporter robust z-score -0.06.
Silencing of ACO1 (aconitase 1) resulted in: TNF reporter robust z-score -0.47.
After knock-down of ACO1 (aconitase 1) the results were TNF reporter robust z-score -0.1.
BRAF (B-Raf proto-oncogene, serine/threonine kinase) scored TNF reporter robust z-score -1.33.
BRAF (B-Raf proto-oncogene, serine/threonine kinase) scored TNF reporter robust z-score -1.01.
BRAF (B-Raf proto-oncogene, serine/threonine kinase) showed TNF reporter robust z-score -1.23.
After knock-down of BRAF (B-Raf proto-oncogene, serine/threonine kinase), the record shows TNF reporter robust z-score -0.7.

No new results follow: entries from further up.
PNKD (PNKD metallo-beta-lactamase domain containing): TNF reporter robust z-score = 3.89 (active)
PNKD (PNKD metallo-beta-lactamase domain containing): TNF reporter robust z-score = 1.57
PNKD (PNKD metallo-beta-lactamase domain containing): TNF reporter robust z-score = 4.21 (active)
CPLX2 (complexin 2): TNF reporter robust z-score = 0.6
